The supplement of paper PMC10849652
The list shows a part of the results.

Protein sequences, listed by entry. Tags and fused reporters are not part of them. Lines headed by an entry give the natural chain unless they say otherwise; changes in a name come on top.
UniProt Q8WU67: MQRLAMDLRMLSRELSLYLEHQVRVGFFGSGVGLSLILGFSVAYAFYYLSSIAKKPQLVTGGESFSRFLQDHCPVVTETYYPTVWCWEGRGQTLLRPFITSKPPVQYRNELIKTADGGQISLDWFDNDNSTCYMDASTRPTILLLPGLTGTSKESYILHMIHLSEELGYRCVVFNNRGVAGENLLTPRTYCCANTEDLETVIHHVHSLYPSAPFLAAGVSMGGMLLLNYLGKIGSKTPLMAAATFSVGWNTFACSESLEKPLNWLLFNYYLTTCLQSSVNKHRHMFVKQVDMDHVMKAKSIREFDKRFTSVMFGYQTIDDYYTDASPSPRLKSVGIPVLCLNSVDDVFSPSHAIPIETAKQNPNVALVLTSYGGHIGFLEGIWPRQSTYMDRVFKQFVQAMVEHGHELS
UniProt Q96M93: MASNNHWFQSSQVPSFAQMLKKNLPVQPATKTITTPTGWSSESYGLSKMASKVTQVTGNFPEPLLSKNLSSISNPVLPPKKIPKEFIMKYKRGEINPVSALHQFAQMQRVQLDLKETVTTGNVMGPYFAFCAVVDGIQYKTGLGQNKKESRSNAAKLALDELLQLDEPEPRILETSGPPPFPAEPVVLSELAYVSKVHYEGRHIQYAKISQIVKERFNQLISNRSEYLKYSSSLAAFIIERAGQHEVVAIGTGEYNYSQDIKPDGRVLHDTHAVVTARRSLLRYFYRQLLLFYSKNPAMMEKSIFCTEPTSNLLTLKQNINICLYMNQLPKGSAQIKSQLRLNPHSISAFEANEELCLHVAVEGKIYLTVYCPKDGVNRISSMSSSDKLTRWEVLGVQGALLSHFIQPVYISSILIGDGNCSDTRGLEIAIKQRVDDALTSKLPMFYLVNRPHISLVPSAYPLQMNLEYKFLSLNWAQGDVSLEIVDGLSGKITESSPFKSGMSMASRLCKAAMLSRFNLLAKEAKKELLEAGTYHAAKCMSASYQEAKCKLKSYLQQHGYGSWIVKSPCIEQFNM
UniProt Q86V21: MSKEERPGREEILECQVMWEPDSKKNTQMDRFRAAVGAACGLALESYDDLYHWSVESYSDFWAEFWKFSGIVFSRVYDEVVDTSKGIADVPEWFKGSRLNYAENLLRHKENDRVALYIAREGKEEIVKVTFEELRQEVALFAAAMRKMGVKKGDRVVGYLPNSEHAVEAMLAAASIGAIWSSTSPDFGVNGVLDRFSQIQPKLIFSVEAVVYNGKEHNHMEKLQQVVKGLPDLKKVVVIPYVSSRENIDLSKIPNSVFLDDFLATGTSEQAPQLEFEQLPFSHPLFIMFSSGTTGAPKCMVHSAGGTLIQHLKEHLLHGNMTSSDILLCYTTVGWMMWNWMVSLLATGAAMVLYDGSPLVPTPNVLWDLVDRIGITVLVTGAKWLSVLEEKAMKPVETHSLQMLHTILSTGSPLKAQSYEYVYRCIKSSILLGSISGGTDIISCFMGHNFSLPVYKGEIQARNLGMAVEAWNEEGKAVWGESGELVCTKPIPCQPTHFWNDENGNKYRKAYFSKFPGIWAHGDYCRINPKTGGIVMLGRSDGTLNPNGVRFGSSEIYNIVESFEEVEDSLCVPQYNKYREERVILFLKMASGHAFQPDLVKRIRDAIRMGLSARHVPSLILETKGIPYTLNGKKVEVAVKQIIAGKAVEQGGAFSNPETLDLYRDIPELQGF
UniProt Q9UKU0: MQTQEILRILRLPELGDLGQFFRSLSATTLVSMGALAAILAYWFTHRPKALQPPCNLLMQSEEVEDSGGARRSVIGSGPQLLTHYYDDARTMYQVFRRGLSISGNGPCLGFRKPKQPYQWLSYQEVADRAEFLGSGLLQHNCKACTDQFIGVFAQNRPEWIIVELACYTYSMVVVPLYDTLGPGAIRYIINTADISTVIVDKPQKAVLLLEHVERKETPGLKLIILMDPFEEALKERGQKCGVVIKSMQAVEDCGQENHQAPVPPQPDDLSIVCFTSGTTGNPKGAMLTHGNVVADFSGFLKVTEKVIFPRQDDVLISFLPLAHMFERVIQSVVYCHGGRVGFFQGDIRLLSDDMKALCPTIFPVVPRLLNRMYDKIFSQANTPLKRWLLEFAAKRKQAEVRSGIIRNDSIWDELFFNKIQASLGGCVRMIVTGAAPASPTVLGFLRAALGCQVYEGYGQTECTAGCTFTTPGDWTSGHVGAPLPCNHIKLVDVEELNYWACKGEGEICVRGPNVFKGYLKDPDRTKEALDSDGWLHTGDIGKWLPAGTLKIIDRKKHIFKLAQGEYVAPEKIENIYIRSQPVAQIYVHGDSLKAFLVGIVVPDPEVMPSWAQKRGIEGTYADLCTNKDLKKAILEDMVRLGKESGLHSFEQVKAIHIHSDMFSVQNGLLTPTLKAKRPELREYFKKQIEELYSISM
UniProt P08183, whole entry, looked up: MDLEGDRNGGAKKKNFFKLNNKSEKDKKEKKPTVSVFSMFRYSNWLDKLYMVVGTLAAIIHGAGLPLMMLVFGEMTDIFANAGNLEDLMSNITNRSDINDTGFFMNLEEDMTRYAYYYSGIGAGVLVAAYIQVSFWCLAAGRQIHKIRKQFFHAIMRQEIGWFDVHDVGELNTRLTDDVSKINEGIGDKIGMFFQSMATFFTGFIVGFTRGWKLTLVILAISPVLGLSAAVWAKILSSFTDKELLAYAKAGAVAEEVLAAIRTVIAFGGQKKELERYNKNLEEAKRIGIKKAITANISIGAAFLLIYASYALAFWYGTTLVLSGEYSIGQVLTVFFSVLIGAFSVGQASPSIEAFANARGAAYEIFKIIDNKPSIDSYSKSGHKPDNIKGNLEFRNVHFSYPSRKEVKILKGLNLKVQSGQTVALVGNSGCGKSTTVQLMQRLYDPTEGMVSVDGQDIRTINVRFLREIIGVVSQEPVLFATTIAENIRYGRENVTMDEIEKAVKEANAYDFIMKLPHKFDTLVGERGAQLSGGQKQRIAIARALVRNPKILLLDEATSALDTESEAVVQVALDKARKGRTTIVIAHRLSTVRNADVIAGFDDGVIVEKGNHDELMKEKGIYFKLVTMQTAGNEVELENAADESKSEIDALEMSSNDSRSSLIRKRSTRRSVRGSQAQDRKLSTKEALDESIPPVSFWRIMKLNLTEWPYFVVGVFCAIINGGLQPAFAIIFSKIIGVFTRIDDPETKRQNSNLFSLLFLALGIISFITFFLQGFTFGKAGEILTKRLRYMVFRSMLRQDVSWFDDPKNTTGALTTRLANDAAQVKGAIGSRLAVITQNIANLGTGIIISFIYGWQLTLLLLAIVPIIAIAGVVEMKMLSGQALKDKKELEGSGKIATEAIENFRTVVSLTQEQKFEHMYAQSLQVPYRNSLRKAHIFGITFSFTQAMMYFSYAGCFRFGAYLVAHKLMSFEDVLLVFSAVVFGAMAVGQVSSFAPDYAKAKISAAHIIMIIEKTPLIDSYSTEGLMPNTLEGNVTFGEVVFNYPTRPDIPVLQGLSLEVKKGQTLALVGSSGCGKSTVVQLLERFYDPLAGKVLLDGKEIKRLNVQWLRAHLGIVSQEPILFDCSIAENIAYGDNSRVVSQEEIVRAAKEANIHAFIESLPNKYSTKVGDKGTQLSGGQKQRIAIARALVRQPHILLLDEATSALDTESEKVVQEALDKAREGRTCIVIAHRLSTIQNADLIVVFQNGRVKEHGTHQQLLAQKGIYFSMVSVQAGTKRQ
UniProt Q8N6N7: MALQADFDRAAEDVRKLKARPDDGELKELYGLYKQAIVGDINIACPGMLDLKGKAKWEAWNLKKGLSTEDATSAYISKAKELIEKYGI
UniProt Q8NFV4: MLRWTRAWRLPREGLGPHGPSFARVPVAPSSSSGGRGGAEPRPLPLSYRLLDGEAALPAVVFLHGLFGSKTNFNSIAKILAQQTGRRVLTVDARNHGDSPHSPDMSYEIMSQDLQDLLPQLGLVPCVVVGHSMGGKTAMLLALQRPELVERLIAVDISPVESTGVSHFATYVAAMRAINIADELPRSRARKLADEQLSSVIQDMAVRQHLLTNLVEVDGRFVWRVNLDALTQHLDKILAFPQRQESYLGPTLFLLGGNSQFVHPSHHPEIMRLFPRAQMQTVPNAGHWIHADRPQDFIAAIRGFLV
UniProt Q76LX8: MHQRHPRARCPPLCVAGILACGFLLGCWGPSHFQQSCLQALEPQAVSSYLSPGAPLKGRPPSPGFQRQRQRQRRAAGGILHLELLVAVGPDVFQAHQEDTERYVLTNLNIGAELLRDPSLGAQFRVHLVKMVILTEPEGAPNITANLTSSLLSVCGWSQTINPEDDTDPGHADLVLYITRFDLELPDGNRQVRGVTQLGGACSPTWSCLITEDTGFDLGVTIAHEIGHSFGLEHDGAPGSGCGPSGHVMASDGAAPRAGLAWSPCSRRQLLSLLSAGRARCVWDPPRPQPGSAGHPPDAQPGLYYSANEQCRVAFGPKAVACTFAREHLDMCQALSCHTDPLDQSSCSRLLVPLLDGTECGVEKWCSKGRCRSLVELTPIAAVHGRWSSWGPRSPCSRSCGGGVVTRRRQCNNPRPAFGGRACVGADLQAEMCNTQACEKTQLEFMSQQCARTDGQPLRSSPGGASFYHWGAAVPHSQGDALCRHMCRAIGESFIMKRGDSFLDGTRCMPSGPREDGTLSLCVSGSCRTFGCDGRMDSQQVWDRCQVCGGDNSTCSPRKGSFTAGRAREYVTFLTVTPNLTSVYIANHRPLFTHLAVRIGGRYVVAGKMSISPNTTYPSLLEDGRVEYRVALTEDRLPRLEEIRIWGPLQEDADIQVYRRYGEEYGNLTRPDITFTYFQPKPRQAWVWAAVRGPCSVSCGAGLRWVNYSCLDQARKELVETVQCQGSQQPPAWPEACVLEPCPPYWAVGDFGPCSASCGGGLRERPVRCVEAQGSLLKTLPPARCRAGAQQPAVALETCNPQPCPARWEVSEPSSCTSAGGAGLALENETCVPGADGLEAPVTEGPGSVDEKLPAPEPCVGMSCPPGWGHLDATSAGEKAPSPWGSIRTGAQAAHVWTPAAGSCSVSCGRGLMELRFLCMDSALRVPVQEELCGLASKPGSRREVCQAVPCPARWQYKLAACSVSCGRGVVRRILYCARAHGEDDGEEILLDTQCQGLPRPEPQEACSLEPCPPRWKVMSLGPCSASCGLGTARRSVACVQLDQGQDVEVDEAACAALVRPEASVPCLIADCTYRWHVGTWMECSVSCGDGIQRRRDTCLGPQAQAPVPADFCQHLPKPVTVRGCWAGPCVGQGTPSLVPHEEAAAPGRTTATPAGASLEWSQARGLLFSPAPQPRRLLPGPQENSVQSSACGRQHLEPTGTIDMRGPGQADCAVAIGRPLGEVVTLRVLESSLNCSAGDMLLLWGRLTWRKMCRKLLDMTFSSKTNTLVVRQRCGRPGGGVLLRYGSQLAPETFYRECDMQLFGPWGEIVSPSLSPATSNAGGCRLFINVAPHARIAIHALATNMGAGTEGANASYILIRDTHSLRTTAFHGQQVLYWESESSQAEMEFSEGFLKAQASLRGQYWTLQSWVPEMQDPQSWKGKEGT
UniProt O15254: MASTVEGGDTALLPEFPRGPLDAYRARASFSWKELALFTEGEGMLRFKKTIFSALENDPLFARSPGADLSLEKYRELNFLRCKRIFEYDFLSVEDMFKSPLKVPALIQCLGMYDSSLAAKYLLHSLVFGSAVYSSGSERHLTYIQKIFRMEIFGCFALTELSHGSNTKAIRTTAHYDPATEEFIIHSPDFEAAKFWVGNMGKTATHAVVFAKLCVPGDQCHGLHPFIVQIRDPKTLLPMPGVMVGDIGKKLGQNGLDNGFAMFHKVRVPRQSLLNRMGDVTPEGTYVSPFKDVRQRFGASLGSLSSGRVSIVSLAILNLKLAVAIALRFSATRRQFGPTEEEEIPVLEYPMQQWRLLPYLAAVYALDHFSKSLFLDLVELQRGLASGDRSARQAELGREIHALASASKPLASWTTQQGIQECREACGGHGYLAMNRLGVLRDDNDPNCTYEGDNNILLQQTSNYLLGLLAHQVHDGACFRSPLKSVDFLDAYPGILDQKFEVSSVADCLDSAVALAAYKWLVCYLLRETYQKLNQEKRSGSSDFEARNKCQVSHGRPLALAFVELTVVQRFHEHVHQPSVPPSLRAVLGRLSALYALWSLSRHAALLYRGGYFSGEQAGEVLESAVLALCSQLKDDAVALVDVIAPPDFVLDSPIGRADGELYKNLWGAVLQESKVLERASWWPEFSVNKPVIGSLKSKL
UniProt Q9BTE6: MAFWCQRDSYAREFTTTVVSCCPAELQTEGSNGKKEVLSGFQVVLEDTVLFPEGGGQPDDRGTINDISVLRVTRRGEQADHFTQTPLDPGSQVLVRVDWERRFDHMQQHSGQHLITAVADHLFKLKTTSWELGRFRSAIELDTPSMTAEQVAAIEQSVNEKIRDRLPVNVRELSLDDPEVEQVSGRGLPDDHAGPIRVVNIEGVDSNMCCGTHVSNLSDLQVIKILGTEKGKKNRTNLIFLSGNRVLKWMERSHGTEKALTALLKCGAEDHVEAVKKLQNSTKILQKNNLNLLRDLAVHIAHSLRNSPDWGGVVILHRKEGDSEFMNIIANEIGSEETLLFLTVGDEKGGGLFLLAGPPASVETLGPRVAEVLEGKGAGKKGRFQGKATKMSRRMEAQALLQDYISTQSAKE

Tests used:
Assay in all cases: log2 fold change, soluble protein after heating vs DMSO (PISA); higher = thermal stabilisation; K562 cells, 10 uM, 30 min; active = over 0.2 and 3.5 SD of the protein, either way, in both replicates (recomputed)
givinostat = compound: CCN(CC)Cc1ccc2cc(COC(=O)Nc3ccc(C(=O)NO)cc3)ccc2c1 [givinostat]
Procedure, shortened: (§1)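 K562 cells at 2×10^6 cells/mL were treated with 10 μM compound for 30 min. Aliquots were heated for 3 min across 48°C-58°C, pooled, and extracted in PBS with 0.5% NP-40 at 4°C; soluble protein was the supernatant after 21,000xg for 90 min. Soluble protein was quantified by TMTpro 16plex LC-MS/MS with channel sums equalised, and reported as log2 fold change in thermal stability against DMSO controls, with values from duplicates.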

barasertib = compound: CCN(CCCOc1ccc2c(Nc3cc(CC(=O)Nc4cccc(F)c4)[nH]n3)ncnc2c1)CCOP(=O)(O)O [barasertib]
Procedure, shortened: as §1

[1] = compound: CC1=C(C=C(C=C1)NC(=O)C2=CC(=CC=C2)N(C)C)NC(=O)C3=CC=C(C=C3)O
Procedure, shortened: as §1

[2] = compound: CC1=NC(=CC=C1)C2=C(N=C(N2)C(C)(C)C)C3=CC4=NC=CN=C4C=C3
Procedure, shortened: as §1

vemurafenib = compound: CCCS(=O)(=O)Nc1ccc(F)c(C(=O)c2c[nH]c3ncc(-c4ccc(Cl)cc4)cc23)c1F [vemurafenib]
Procedure, shortened: as §1

[3] = compound: CCCc1cc(C)[nH]c(=O)c1CNC(=O)c1cc(-c2ccnc(N3CCN(C)CC3)c2)cc2c1cnn2C(C)C
Procedure, shortened: as §1

Nexturastat A = compound: CCCCN(Cc1ccc(C(=O)NO)cc1)C(=O)Nc1ccccc1 [Nexturastat A]
Procedure, shortened: as §1

[4] = compound: CC1=C(C=C(C=C1)NC(=O)C2=CC(=CC=C2)C(C)(C)C#N)NC3=CC4=C(C=C3)N=CN(C4=O)C
Procedure, shortened: as §1

[5] = compound: CC1=CC=C(C=C1)SC2=C3C=C(SC3=CN=C2)C(=O)N
Procedure, shortened: as §1

[6] = compound: CCCS(=O)(=O)Nc1ccc(F)c(C(=O)c2c[nH]c3ncc(Cl)cc23)c1F
Procedure, shortened: as §1

Measured: log2 fold change

ABHD3 (UniProt Q8WU67)
inactive: givinostat 0.108

ABCB5 (UniProt Q2M3G0)
inactive: givinostat -0.007 | barasertib -0.115

ADAD1 (UniProt Q96M93)
inactive: [1] -0.074 | [2] -0.035 | vemurafenib -0.11 | [3] -0.251 | givinostat 0.134 | barasertib 0.044

ACCS (UniProt Q96QU6)
inactive: [1] 0.156 | Nexturastat A 0.278 | [3] -0.303 | givinostat 0.073 | barasertib 0.356

ABCA2 isoform 3 (UniProt Q9BZC7)
inactive: [4] -0.318 | [1] 0.026 | [2] -0.133 | barasertib 0.062

ACVR1 (UniProt Q04771)
inactive: [4] -0.194 | [5] 0.011 | Nexturastat A 0.037 | vemurafenib 0.015 | [6] 0.017 | [3] -0.149 | givinostat 0.031

ABAT (UniProt P80404)
inactive: Nexturastat A -0.198

ABHD17B (UniProt Q5VST6)
inactive: [1] 0.055 | [5] -0.009 | [2] -0.041 | Nexturastat A 0.027 | vemurafenib -0.052 | [6] 0.031 | [3] 0.014 | givinostat -0.091 | barasertib 0.043

AACS (UniProt Q86V21)
inactive: [1] 0.05 | Nexturastat A 0.329

ABCE1 (UniProt H0Y990)
inactive: [4] 0.084 | [5] 0.088 | Nexturastat A -0.15 | vemurafenib 0.06 | [6] -0.024 | [3] 0.034 | givinostat -0.063 | barasertib -0.034

ABCD1 (UniProt P33897)
inactive: [4] -0.172 | [2] -0.068 | Nexturastat A 0.235 | givinostat 0.085

ACAD10 isoform 5 (UniProt Q6JQN1)
inactive: [1] 0.126 | vemurafenib 0.049 | givinostat 0.028

ACSL6 isoform 1 (UniProt Q9UKU0)
inactive: [4] 0.075 | [1] -0.014 | Nexturastat A 0.082 | vemurafenib 0.17 | [3] 0.035 | givinostat 0.04 | barasertib 0.133

ABHD4 (UniProt Q8TB40)
inactive: Nexturastat A 0.121 | givinostat 0.005 | barasertib -0.465

ABCB1 (UniProt P08183)
inactive: [5] -0.099 | [2] -0.028 | [6] -0.222 | [3] -0.299

ACTB (UniProt E7EVS6)
inactive: givinostat -0.169

ACBD7 (UniProt Q8N6N7)
inactive: [5] 0.071 | [6] -0.246

ABHD11 (UniProt Q8NFV4)
inactive: [1] -0.065 | [5] -0.004 | [2] 0.003 | Nexturastat A -0.028 | vemurafenib 0.139 | [6] -0.011 | [3] 0.023 | givinostat 0.02 | barasertib 0.057

ABCF1 (UniProt Q5STZ8)
inactive: vemurafenib -0.079 | barasertib -0.087

ABCA8 isoform 3 (UniProt O94911)
inactive: givinostat -0.068 | barasertib -0.081

ACTC1 (UniProt P68032)
inactive: givinostat -0.037

ACTN1 (UniProt H9KV75)
inactive: [4] -0.117 | [5] 0.124 | Nexturastat A 0.201 | vemurafenib -0.055 | [6] -0.084 | [3] 0.065 | givinostat 0.122 | barasertib 0.028

ACTRT1 (UniProt Q8TDG2)
inactive: [5] -0.11 | Nexturastat A -0.115 | vemurafenib -0.161 | [6] -0.374 | givinostat 0.1 | barasertib 0.01

ABCB4 (UniProt P21439)
inactive: [1] 0.011 | [5] 0.001 | vemurafenib -0.014 | [6] 0.025 | [3] -0.104 | givinostat 0.106

ACAA2 (UniProt K7ER88)
inactive: [4] -0.331 | [5] -0.162 | Nexturastat A -0.255 | vemurafenib -0.054 | [6] 0.094 | [3] 0.085 | barasertib 0.08

ACP1 (UniProt P24666)
inactive: [4] 0.007 | [5] 0.01 | [2] -0.123 | Nexturastat A 0.001 | vemurafenib 0.071 | [6] -0.047 | [3] 0.039 | givinostat 0.076 | barasertib 0.12

ACTB, A0A2R8YGF8
inactive: [3] -0.105

ACTB, A0A2R8YEA7
inactive: [4] -0.025 | [1] 0.091 | vemurafenib 0.038 | [3] 0.04 | givinostat -0.014 | barasertib -0.047

ACTG1 (UniProt I3L4N8)
inactive: [1] 0.03 | [3] -0.004 | givinostat 0.154

ACTR3B (UniProt Q9P1U1)
inactive: [1] -0.046 | [5] -0.05 | [2] 0.198 | vemurafenib 0.019 | [6] 0.014 | givinostat 0.147

Reprinted from the listing (2 entries):
ABHD3 (UniProt Q8WU67)
inactive: givinostat 0.108

ABCB5 (UniProt Q2M3G0)
inactive: givinostat -0.007 | barasertib -0.115

Next records follow:

ADAMTS13 (UniProt Q76LX8)
inactive: [4] 0.099 | [5] 0.019 | Nexturastat A -0.064 | [6] -0.112

ACOX3 (UniProt O15254)
inactive: [4] 0.111 | [5] -0.192 | [2] -0.011 | Nexturastat A 0.039 | vemurafenib 0.057 | [6] -0.009 | [3] 0.184 | givinostat -0.01 | barasertib -0.035

AARSD1 (UniProt Q9BTE6)
inactive: [5] 0.044 | [2] 0.278 | [6] 0.206 | [3] 0.027 | givinostat -0.285 | barasertib 0.119

ADAM8 (UniProt P78325)
inactive: [2] -0.15 | Nexturastat A -0.108 | givinostat -0.135
